# This is one part of the list.
# B1: CBP21 (Serratia marcescens), O83009 (protein)
# chain: MNKTSRTLLSLGLLSAAMFGVSQQANAHGYVESPASRAYQCKLQLNTQCGSVQYEPQSVEGLKGFPQAGPADGHIASADKSTFFELDQQTPTRWNKLNLKTGPNSFTWKLTARHSTTSWRYFITKPNWDASQPLTRASFDLTPFCQFNDGGAIPAAQVTHQCNIPADRSGSHVILAVWDIADTANAFYQAIDVNLSK
# How the values were obtained:
# Test in all cases: glycan array binding signal (z-score within array); higher = stronger binding
# Details in all cases: glycan notation: IUPAC condensed, linker removed
# [1] = biological target: GalNAc(b1-4)GlcNAc
# How it was run: (§1)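 Glycan array data came from 3228 arrays in the Consortium for Functional Glycomics database, and only arrays with an available protein sequence were kept. Glycan names were put into IUPAC-condensed notation, and columns mapping to the same glycan were averaged. The binding signal is a within-array Z-score, averaged across arrays of one protein sequence run at different concentrations or buffers and across linkers. A negative Z-score can be read as non-binding.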
# [2] = biological target: GalNAc(b1-4)GlcNAc(b1-2)Man
# How it was run: as §1
# [3] = biological target: GalNAc(b1-4)GlcNAc(b1-2)Man(a1-3)[GalNAc(b1-4)GlcNAc(b1-2)Man(a1-6)]Man(b1-4)GlcNAc(b1-4)GlcNAc
# How it was run: as §1
# [4] = biological target: GalNAc(b1-4)GlcNAc(b1-3)GalNAc(b1-4)GlcNAc
# How it was run: as §1
# [5] = biological target: GalNAc(b1-4)GlcNAc6S
# How it was run: as §1
# [6] = biological target: GalNAc(b1-6)GalNAc
# How it was run: as §1
# [7] = biological target: GalNAc3S(b1-4)GlcNAc
# How it was run: as §1
# [8] = biological target: GalNAc3S(b1-4)GlcNAc3S
# How it was run: as §1
# [9] = biological target: GalNAc3S(b1-4)[Fuc(a1-3)]GlcNAc
# How it was run: as §1
# [10] = biological target: GalNAc4S6S(b1-4)GlcNAc
# How it was run: as §1
# [11] = biological target: GalNAc6S(b1-4)GlcNAc
# How it was run: as §1
# [12] = biological target: Glc(a1-4)Glc
# How it was run: as §1
# [13] = biological target: Glc(a1-4)Glc(a1-4)Glc(a1-4)Glc
# How it was run: as §1
# [14] = biological target: Glc(a1-6)Glc(a1-6)Glc
# How it was run: as §1
# [15] = biological target: Glc(a1-6)Glc(a1-6)Glc(a1-6)Glc
# How it was run: as §1
# [16] = biological target: Glc(b1-4)Glc
# How it was run: as §1
# [17] = biological target: Glc(b1-6)Glc
# How it was run: as §1
# [18] = biological target: GlcA(b1-3)Gal
# How it was run: as §1
# [19] = biological target: GlcA(b1-3)GlcNAc
# How it was run: as §1
# [20] = biological target: GlcA(b1-6)Gal
# How it was run: as §1
# [21] = biological target: GlcA3S(b1-3)Gal(b1-4)GlcNAc(b1-2)Man
# How it was run: as §1
# [22] = biological target: GlcA3S(b1-3)Gal(b1-4)GlcNAc(b1-3)Gal(b1-4)Glc
# How it was run: as §1
# [23] = biological target: GlcNAc(a1-3)Gal(b1-4)GlcNAc
# How it was run: as §1
# [24] = biological target: GlcNAc(a1-4)Gal(b1-3)GlcNAc
# How it was run: as §1
# [25] = biological target: GlcNAc(a1-4)Gal(b1-4)GalNAc
# How it was run: as §1
# [26] = biological target: GlcNAc(a1-4)Gal(b1-4)GlcNAc
# How it was run: as §1
# [27] = biological target: GlcNAc(a1-4)Gal(b1-4)GlcNAc(b1-3)Gal(b1-4)Glc
# How it was run: as §1
# [28] = biological target: GlcNAc(a1-4)Gal(b1-4)GlcNAc(b1-3)Gal(b1-4)GlcNAc
# How it was run: as §1
# [29] = biological target: GlcNAc(a1-4)Gal(b1-4)GlcNAc(b1-3)Gal(b1-4)GlcNAc(b1-3)Gal(b1-4)GlcNAc
# How it was run: as §1
# [30] = biological target: GlcNAc(a1-4)Gal(b1-4)GlcNAc(b1-3)Gal(b1-4)[Fuc(a1-3)]GlcNAc(b1-3)Gal(b1-4)[Fuc(a1-3)]GlcNAc
# How it was run: as §1
# [31] = biological target: GlcNAc(a1-6)Gal(b1-4)GlcNAc
# How it was run: as §1
# [32] = biological target: GlcNAc(b1-2)Gal(b1-3)GalNAc
# How it was run: as §1
# [33] = biological target: GlcNAc(b1-2)Man(a1-3)[GlcNAc(b1-2)Man(a1-6)]Man(b1-4)GlcNAc(b1-4)GlcNAc
# How it was run: as §1
# [34] = biological target: GlcNAc(b1-2)Man(a1-3)[GlcNAc(b1-2)Man(a1-6)]Man(b1-4)GlcNAc(b1-4)[Fuc(a1-6)]GlcNAc
# How it was run: as §1
# [35] = biological target: GlcNAc(b1-2)Man(a1-3)[GlcNAc(b1-4)][GlcNAc(b1-2)Man(a1-6)]Man(b1-4)GlcNAc(b1-4)GlcNAc
# How it was run: as §1
# [36] = biological target: GlcNAc(b1-2)Man(a1-3)[GlcNAc(b1-4)][GlcNAc(b1-2)Man(a1-6)]Man(b1-4)GlcNAc(b1-4)[Fuc(a1-6)]GlcNAc
# How it was run: as §1
# [37] = biological target: GlcNAc(b1-2)[GlcNAc(b1-4)]Man(a1-3)[GlcNAc(b1-2)Man(a1-6)]Man(b1-4)GlcNAc(b1-4)GlcNAc
# How it was run: as §1
# [38] = biological target: GlcNAc(b1-2)[GlcNAc(b1-4)]Man(a1-3)[GlcNAc(b1-4)][GlcNAc(b1-2)Man(a1-6)]Man(b1-4)GlcNAc(b1-4)GlcNAc
# How it was run: as §1
# [39] = biological target: GlcNAc(b1-2)[GlcNAc(b1-4)]Man(a1-3)[GlcNAc(b1-4)][GlcNAc(b1-2)[GlcNAc(b1-6)]Man(a1-6)]Man(b1-4)GlcNAc(b1-4)GlcNAc
# How it was run: as §1
# [40] = biological target: GlcNAc(b1-2)[GlcNAc(b1-4)]Man(a1-3)[GlcNAc(b1-4)][GlcNAc(b1-2)[GlcNAc(b1-6)]Man(a1-6)]Man(b1-4)GlcNAc(b1-4)[Fuc(a1-6)]GlcNAc
# How it was run: as §1
# [41] = biological target: GlcNAc(b1-2)[GlcNAc(b1-6)]Man(a1-6)[GlcNAc(b1-2)Man(a1-3)]Man(b1-4)GlcNAc(b1-4)GlcNAc
# How it was run: as §1
# [42] = biological target: GlcNAc(b1-2)[GlcNAc(b1-6)]Man(a1-6)[GlcNAc(b1-2)Man(a1-3)]Man(b1-4)GlcNAc(b1-4)[Fuc(a1-6)]GlcNAc
# How it was run: as §1
# [43] = biological target: GlcNAc(b1-2)[GlcNAc(b1-6)]Man(a1-6)[GlcNAc(b1-4)][GlcNAc(b1-2)Man(a1-3)]Man(b1-4)GlcNAc(b1-4)GlcNAc
# How it was run: as §1
# [44] = biological target: GlcNAc(b1-3)Fuc
# How it was run: as §1
# [45] = biological target: GlcNAc(b1-3)Gal
# How it was run: as §1
binder,measurement,setting,value
B1,glycan array binding signal (z-score),[1],0.482
same,glycan array binding signal (z-score),[2],0.23
same,glycan array binding signal (z-score),[3],-0.07
same,glycan array binding signal (z-score),[4],0.054
same,glycan array binding signal (z-score),[5],0.16
same,glycan array binding signal (z-score),[6],-1.14
same,glycan array binding signal (z-score),[7],-0.701
same,glycan array binding signal (z-score),[8],0.435
same,glycan array binding signal (z-score),[9],0.277
same,glycan array binding signal (z-score),[10],0.327
same,glycan array binding signal (z-score),[11],-0.003
same,glycan array binding signal (z-score),[12],-0.381
same,glycan array binding signal (z-score),[13],0.888
same,glycan array binding signal (z-score),[14],-0.542
same,glycan array binding signal (z-score),[15],-0.721
same,glycan array binding signal (z-score),[16],-0.839
same,glycan array binding signal (z-score),[17],-1.2
same,glycan array binding signal (z-score),[18],-1.25
same,glycan array binding signal (z-score),[19],1.4
same,glycan array binding signal (z-score),[20],0.57
same,glycan array binding signal (z-score),[21],-1.64
same,glycan array binding signal (z-score),[22],2.43
same,glycan array binding signal (z-score),[23],-0.772
same,glycan array binding signal (z-score),[24],0.503
same,glycan array binding signal (z-score),[25],-0.126
same,glycan array binding signal (z-score),[26],-2.04
same,glycan array binding signal (z-score),[27],0.067
same,glycan array binding signal (z-score),[28],-0.305
same,glycan array binding signal (z-score),[29],-1.52
same,glycan array binding signal (z-score),[30],-1.08
same,glycan array binding signal (z-score),[31],-0.193
same,glycan array binding signal (z-score),[32],-1.05
same,glycan array binding signal (z-score),[33],-0.889
same,glycan array binding signal (z-score),[34],2.05
same,glycan array binding signal (z-score),[35],-0.341
same,glycan array binding signal (z-score),[36],-0.613
same,glycan array binding signal (z-score),[37],-0.435
same,glycan array binding signal (z-score),[38],1.71
same,glycan array binding signal (z-score),[39],-0.854
same,glycan array binding signal (z-score),[40],-0.659
same,glycan array binding signal (z-score),[41],-1.68
same,glycan array binding signal (z-score),[42],1.12
same,glycan array binding signal (z-score),[43],-0.381
same,glycan array binding signal (z-score),[44],-0.382
same,glycan array binding signal (z-score),[45],-0.728

# Two records picked at random from the list so far, as already listed:
binder,measurement,setting,value
B1,glycan array binding signal (z-score),[30],-1.08
same,glycan array binding signal (z-score),[38],1.71
